According to publication PMC8242016:
These are yes or no findings as the source states them, for the method shown. Binding seen in cells or lysates may run through a third protein. Some entries that bind do so weakly or less than the wild type. For some assays here: Sequences can lack the tags named with a protein.

T1: HA-tagged X. tropicalis JunB (X. tropicalis) (UniProt Q28IY7)
T1 sequence: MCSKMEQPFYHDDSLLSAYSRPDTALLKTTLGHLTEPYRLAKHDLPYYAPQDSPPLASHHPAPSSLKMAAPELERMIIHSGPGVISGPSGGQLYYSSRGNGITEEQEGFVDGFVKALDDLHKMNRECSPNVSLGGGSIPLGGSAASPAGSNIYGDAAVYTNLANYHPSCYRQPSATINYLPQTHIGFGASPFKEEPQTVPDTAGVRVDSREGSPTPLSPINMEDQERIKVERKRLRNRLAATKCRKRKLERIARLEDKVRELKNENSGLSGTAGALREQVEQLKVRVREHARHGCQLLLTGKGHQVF

T2: JunB (mouse, endogenous) (mouse (endogenous in neonatal mouse heart)) (UniProt P09450)
T2 sequence: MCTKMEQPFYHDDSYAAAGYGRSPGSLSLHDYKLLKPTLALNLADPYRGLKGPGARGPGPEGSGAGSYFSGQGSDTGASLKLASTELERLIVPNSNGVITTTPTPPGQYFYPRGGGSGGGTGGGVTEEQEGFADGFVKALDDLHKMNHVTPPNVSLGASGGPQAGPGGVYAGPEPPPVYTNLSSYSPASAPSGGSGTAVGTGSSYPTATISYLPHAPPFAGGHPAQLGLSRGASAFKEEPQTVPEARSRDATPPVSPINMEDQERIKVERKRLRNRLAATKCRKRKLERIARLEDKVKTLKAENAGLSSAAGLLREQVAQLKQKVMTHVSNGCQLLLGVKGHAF


Tests used:
[1] = molecular target: T1, HA-tagged X. tropicalis JunB (X. tropicalis); assay: co-IP; lysate of X. tropicalis embryos co-injected with Flag-xFosl1 and HA-xJunB plasmids (48 h); precipitated overnight at 4 °C with anti-Flag or anti-HA, magnetic beads, IgG as negative control; western blotting
[2] = molecular target: T2, JunB (mouse, endogenous) (mouse (endogenous in neonatal mouse heart)); assay: co-IP; endogenous proteins from neonatal mouse heart, regenerating (apex resection) compared with quiescent; anti-Fosl1 and anti-JunB antibodies; western blotting

Binder	binding [1]	binding [2]
Flag-tagged X. tropicalis Fosl1 (protein, UniProt F7CZ65 1-298) MYRDFTGAFPQPDSGCSSHGLRNSGSSPILGTSGMGHSVRLNPPPEDAQQKYPVHTSSGQFIPTLNAITSSQDLNWMIQPSVRPLNLPPYQSPRHGVIRNMGGVLSMGRRRNGEHLSPEEEERRRVRRERNKVAAAKCRNRRKELTDYLQAETDKLEEEKSSLQKEIAELQKQKDKLELILEAHQPICKFPDSHHNMQQVDSSRLVKKEPHEESPRGPKVNLPRIELSDTILEPEALHTPTLMKTPSITPFTPNLVFTYPGPQESCSTAHRRLSRSSSSGSSGEQSPCSLSSNSLLTL	binds	
Fosl1 (mouse, endogenous) (protein, UniProt P48755 1-273) MYRDYGEPGPSSGAGSPYGRPAQPPQAQAQTAQQQKFHLVPSIDSSSQELHWMVQPHFLGPTGYPRPLAYPQYSPPQPRPGVIRALGPPPGVRRRPCEQISPEEEERRRVRRERNKLAAAKCRNRRKELTDFLQAETDKLEDEKSGLQREIEELQKQKERLELVLEAHRPICKIPEGDKKDPGGSGSTSGASSPPAPGRPVPCISLSPGPVLEPEALHTPTLMTTPSLTPFTPSLVFTYPSTPEPCSSAHRKSSSSSGDPSSDPLGSPTLLAL		binds
